Data: article PMC7048787, “MCL1 binding to the reverse BH3 motif of P18INK4C couples cell survival to cell proliferation” (Cell Death & Disease, 2020)
These are yes or no findings as the source states them, for the method shown. For some of these results: Binding seen in cells or lysates may run through a third protein. Some results given as binding are weak or reduced against the parent protein; the word gives no strength. Blank lines part the entries; values can stand above or below the molecule they belong to.

Sequences of proteins named here, by UniProt entry; tags and fusion partners are left off. A change or cut given only in a name is not applied to a line headed by its entry. Residues count along the entry.
UniProt P42773: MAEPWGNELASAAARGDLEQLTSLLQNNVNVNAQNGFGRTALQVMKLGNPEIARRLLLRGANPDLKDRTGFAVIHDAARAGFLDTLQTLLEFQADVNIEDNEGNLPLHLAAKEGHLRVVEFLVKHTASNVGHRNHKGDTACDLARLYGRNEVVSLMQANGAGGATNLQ
P18-ANK1-4 (P18 residues 1-140): residues 1-140 of P42773
UniProt P42771: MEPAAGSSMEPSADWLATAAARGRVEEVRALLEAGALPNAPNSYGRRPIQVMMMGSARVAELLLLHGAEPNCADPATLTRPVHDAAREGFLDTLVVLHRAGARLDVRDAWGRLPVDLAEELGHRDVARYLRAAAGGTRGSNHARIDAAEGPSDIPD

Columns and labels:
[1] = target: P18 (P18INK4C), endogenous (human (endogenous in PC-3 and WAC2)) (UniProt P42773); experiment: co-IP; reverse immunoprecipitation of endogenous P18 with a monoclonal antibody (or control IgG) from PC-3 cells, blots for MCL1 and CDK6
[2] = target: MCL1, endogenous (human (endogenous in PC-3 and WAC2)) (UniProt Q07820); experiment: co-IP; immunoprecipitation of endogenous MCL1 (or control IgG) from PC-3 and WAC2 cells, blots for P18 and BAX
[3] = target: P16 (P16INK4A residues 1-156), recombinant (human) (UniProt P42771); experiment: pull-down; in vitro pulldown of recombinant P18, P16, truncated and chimeric proteins (IP) with recombinant MCL1 (IB); both purified
[4] = target: P18-ANK1-4 (P18 residues 1-140) (human) (UniProt P42773); experiment: as above

binding [1]: binds
Molecule: MCL1, endogenous (from UniProt Q07820 1-350)

binding [2]: binds
Molecule: P18 (P18INK4C), endogenous (from UniProt P42773 1-168)

binding [3]: no binding | binding [4]: no binding
B1: His6-MCL1 (human MCL1 residues 163-326) (domain or fragment, UniProt Q07820 163-326, looked up)
chain: TPPPAEEEEDELYRQSLEIISRYLREQATGAKDTKPMGRSGATSRKALETLRRVGDGVQRNHETAFQGMLRKLDIKNEDDVKSLSRVMIHVFSDGVTNWGRIVTLISFGAFVAKHLKTINQESCIEPLAESITDVLVRTKRDWLVKQRGWDGFVEFFHVEDLEG
notes: Named His6-MCL1 in the FPA; called rMCL1 in the pull-downs; also called His-MCL1; recombinant MCL1; source: E. coli BL21(DE3), purified (nickel column, gel filtration); not shown: His6, N-terminal, kept
